Data as given in PubChem BioAssay AID1159578 (Peter MacCallum Cancer Centre, 2015)
Test: 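siRNA pools altering how lymphatic endothelial cells close a scratch wound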 (primary screen). System: human lymphatic endothelial cells. Reagents: siRNA pool against human genes, 40 nM. Time to read-out: 48 h after transfection. Read-out: 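High-content imaging of dye-stained cells in a scratch assay measures filled wound area and nuclei per well; duplicate means given as ratio to mock and robust z-score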. Reading the numbers: migration robust z-score: higher = faster migration into the scratch; nuclei per well: higher = more cells in the well. Active means: 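Pools averaging fewer than 3300 nuclei are never called; remaining pools count as changed when migration robust z lies outside -2 to 2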. Meaning of the calls: active = migration changed; inactive = no migration change, or too few cells.
Shown is one part, drawn at random, of about 18,000 reagents. About 1,030 of all reagents (5.7%) count as active. 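Inactive calls also include pools with fewer than 3300 nuclei, whose migration was not assessed.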 Raw values vary from plate to plate and are shown uncorrected. Not all columns of the deposit are shown. No sequences are given here.

Against ITGB3, the entry reads migration robust z-score 0.18; nuclei per well, duplicate mean 4856; inactive. For PRDM11 the deposit lists migration robust z-score 1.71; nuclei per well, duplicate mean 5129; inactive. PKD1L1 gave migration robust z-score -0.64; nuclei per well, duplicate mean 6166; inactive. For NSD3, the values are migration robust z-score -0.02; nuclei per well, duplicate mean 5444; inactive. Silencing of DNAAF3 gave: migration robust z-score -0.99; nuclei per well, duplicate mean 7402; inactive. Against YBEY, the entry reads migration robust z-score -1.91; nuclei per well, duplicate mean 4840; inactive.

JUP showed migration robust z-score 0.71; nuclei per well, duplicate mean 6162; inactive. MPP4 scored migration robust z-score -0.1; nuclei per well, duplicate mean 6394; inactive. For PCMTD1, the values are migration robust z-score 0.56; nuclei per well, duplicate mean 6077; inactive. Silencing of USP21 resulted in: migration robust z-score -0.99; nuclei per well, duplicate mean 5539; inactive. With knock-down of TRPM1, the record shows migration robust z-score 1.58; nuclei per well, duplicate mean 6038; inactive. With knock-down of ABTB3 the results were migration robust z-score -0.82; nuclei per well, duplicate mean 5802; inactive.

Knock-down of FAM86B1 resulted in: migration robust z-score -1.51; nuclei per well, duplicate mean 5155; inactive. With knock-down of SMIM43 the results were migration robust z-score -1.48; nuclei per well, duplicate mean 6222; inactive. For ZWINT, the values are migration robust z-score -0.06; nuclei per well, duplicate mean 5752; inactive. After knock-down of SETD9, the screen gave migration robust z-score -2.7; nuclei per well, duplicate mean 4054; active. For ACAD8 the deposit lists migration robust z-score -0.05; nuclei per well, duplicate mean 5082; inactive. Against ZNF83, the entry reads migration robust z-score 0.24; nuclei per well, duplicate mean 6391; inactive.

Depletion of HOXA10 gave: migration robust z-score -0.52; nuclei per well, duplicate mean 5441; inactive. With knock-down of CHST10, the record shows migration robust z-score 0.08; nuclei per well, duplicate mean 5460; inactive. Knock-down of CCDC71L gave: migration robust z-score 0.18; nuclei per well, duplicate mean 5894; inactive.

In a second layout: results already given
{"gene symbol": "ITGB3", "migration robust z-score": 0.18, "nuclei per well, duplicate mean": 4856, "activity call": "inactive"}
{"gene symbol": "PRDM11", "migration robust z-score": 1.71, "nuclei per well, duplicate mean": 5129, "activity call": "inactive"}
